Assay: general procedure: peptide synthesis; PS-DCC (HOBt in some examples), NMM; DIC/DMAP (General Procedure C)
Conditions: conjugation step

**Q.** With Ac-ProLeuGly-MetTrpAla-Y as the substance, how does the conjugation yield read?
**A.** The conjugation yield was 70% yield.
